Test results published in patent US20110263668A1, “Beta 3-Adrenoreceptor Agonists for the Treatment of Cardiac Hypertrophy and Heart Failure” (THE JOHNS HOPKINS UNIVERSITY, priority 2009, published 2011).
At least one structure is not confirmed: it was looked up by name or label, or the drawing left a doubt.

System: NOS-dependent superoxide production
Test: NOS-dependent superoxide generation (lucigenin, with and without L-NAME) after TAC with BH4
Format: in vivo, mouse
Conditions: β3−/− TAC BH4 vs. β3−/− TAC, 3 weeks of TAC

With `C[C@H](O)[C@H](O)[C@H]1CNc2nc(N)[nH]c(=O)c2N1` [BH4, tetrahydrobiopterin] the “NOS-dependent superoxide production in whole heart homogenates” value was “reduced NOS-dependent superoxide production”.
